No constants are given. Whether binding was seen depends on the method and setting. Binding seen in cells or lysates may run through a third protein. Some results given as binding are weak or reduced against the parent protein; the word gives no strength. Blank lines part the entries; values can stand above or below the substance they belong to.
Legend:
HA-Snail = HA-Snail (UniProt O95863); assay: co-IP; reverse IP: HEK-293T cells transfected with Flag-p66β and HA-Snail; anti-HA antibody and protein A/G agarose 12 h at 4 °C; blot with anti-Flag
Flag-p66β = Flag-p66β (UniProt Q8WXI9 1-593); assay: co-IP; HEK-293T cells transfected with Flag-p66β (or its truncations) and HA-Snail and/or HA-MTA2; IP buffer (1% Triton X-100, 150 mM NaCl, 50 mM Tris/HCl pH 7.5); anti-Flag M2 affinity gel 4 h at 4 °C; blot with anti-HA; in Fig. S3 with increasing expression of HA-Snail
GST-Snail = GST-Snail (UniProt O95863 1-264); assay: pull-down; bacterially expressed GST-Snail or its truncations incubated with HA-p66β prepared from HEK-293T cells and GST beads; co-eluted HA-p66β detected by anti-HA Western blot; only the target purified
[1] = biological target: p66β (endogenous, MDA-MB-231 cells) (human (endogenous in MDA-MB-231)) (UniProt Q8WXI9); assay: co-IP; lysates of MDA-MB-231 cells with an anti-p66β antibody and protein A/G beads; co-eluted proteins detected with a Snail antibody; both proteins endogenous
[2] = biological target: Flag-Snail (stably expressed in MDA-MB-231 cells) (UniProt O95863); assay: co-IP; lysates of MDA-MB-231-Flag-Snail stable cells on anti-Flag M2 beads; co-eluted proteins detected with an anti-p66β antibody

Protein sequences, listed by entry. Tags and fused reporters are not part of them.
UniProt O95863: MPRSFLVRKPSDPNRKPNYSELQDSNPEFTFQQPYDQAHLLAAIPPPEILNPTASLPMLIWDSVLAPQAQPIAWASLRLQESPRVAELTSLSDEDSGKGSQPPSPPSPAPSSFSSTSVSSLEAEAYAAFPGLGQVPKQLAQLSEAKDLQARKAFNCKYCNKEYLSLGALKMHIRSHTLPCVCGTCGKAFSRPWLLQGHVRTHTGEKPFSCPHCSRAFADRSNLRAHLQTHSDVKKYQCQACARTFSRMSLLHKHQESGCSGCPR
UniProt Q8WXI9: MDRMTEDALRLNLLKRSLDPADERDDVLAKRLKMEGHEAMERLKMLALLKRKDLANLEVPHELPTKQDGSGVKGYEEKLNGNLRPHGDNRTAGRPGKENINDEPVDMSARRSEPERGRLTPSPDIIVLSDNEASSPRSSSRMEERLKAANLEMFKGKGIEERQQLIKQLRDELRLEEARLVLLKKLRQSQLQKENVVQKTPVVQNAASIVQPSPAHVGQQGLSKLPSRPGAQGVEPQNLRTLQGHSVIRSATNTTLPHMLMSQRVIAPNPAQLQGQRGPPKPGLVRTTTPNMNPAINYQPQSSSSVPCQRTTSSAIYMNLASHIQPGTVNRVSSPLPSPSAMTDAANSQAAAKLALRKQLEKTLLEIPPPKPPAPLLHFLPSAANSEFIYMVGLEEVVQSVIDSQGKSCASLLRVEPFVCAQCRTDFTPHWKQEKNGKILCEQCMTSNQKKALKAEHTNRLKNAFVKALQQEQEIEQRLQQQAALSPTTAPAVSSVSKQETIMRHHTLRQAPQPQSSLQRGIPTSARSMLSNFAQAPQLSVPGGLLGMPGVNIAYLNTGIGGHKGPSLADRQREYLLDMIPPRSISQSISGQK

binding (HA-Snail): binds
Substance: Flag-p66β (full-length) (from UniProt Q8WXI9 1-593)

binding [1]: binds
Substance: Snail (endogenous, MDA-MB-231 cells) (from UniProt O95863 1-264)

The remaining lines, values behind:

Substance: HA-Snail (from UniProt O95863 1-264)
binding (Flag-p66β): binds

Substance: HA-p66β (from UniProt Q8WXI9 1-593)
binding (GST-Snail): binds

Substance: p66β (endogenous, MDA-MB-231 cells) (from UniProt Q8WXI9 1-593)
binding [2]: binds

From article PMC10307831, “GATA zinc finger protein p66β promotes breast cancer cell migration by acting as a co-activator of Snail”
